Record: PubChem BioAssay AID1224828 (NIAID, 2016)
Screen: 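Knock-downs that increase or decrease LPS-induced p65 nuclear translocation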 (primary screen). Cell system: mouse RAW264.7 G9 macrophage reporter cells (GFP-p65, Tnf promoter-mCherry). Reagents: siRNA pool against mouse genes, 100 nM. Time to read-out: 2 days siRNA transfection, then 40 min LPS before fixation. Challenge: LPS (Salmonella minnesota R595) at 10 ng/ml. Measurement: 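Imaged p65 nuclear translocation ratio, normalised to the plate median, converted to robust z-scores and averaged across two replicates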. Direction: p65 translocation robust z-score: higher = more nuclear NF-kappaB p65 after LPS than the plate median; nuclear/cytoplasmic p65 ratio: higher = more nuclear NF-kappaB p65. Rule for the call: 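Called active when z exceeds 3.3 or falls under -1.56 (median of Tlr4 controls), giving activity score of at least 50; no calls for control wells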. Calls: active = hit (p65 shift raised or lowered); inactive = no clear change.
Shown is an unselected part of about 17,000 deposited reagents. In the full data, 762 (4.5%) got an active call. 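Active calls include both raised and lowered p65 entry, mostly lowered; wells with fewer than 50 cells lack a z-score.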 Raw values are not corrected between plates.

Cmc2 (GeneID 66531) showed p65 translocation robust z-score 0.03; nuclear/cytoplasmic p65 ratio, rep 1 = 1.59; nuclear/cytoplasmic p65 ratio, rep 2 = 1.64; low cell count flag enough cells to score; inactive.
Depletion of Sin3a (GeneID 20466) came out at: p65 translocation robust z-score 0.35; nuclear/cytoplasmic p65 ratio, rep 1 = 1.59; nuclear/cytoplasmic p65 ratio, rep 2 = 1.61; low cell count flag enough cells to score; inactive.
Against Trim12a (GeneID 76681), the entry reads p65 translocation robust z-score -1.77; nuclear/cytoplasmic p65 ratio, rep 1 = 1.15; nuclear/cytoplasmic p65 ratio, rep 2 = 0.99; low cell count flag enough cells to score; active.
Against Or4n4b (GeneID 258657) the deposit lists nuclear/cytoplasmic p65 ratio, rep 1 = 1.47; nuclear/cytoplasmic p65 ratio, rep 2 = 1.4; low cell count flag fewer than 50 cells per well; well left out of scoring; inactive.
With knock-down of Nckipsd (GeneID 80987), the record shows nuclear/cytoplasmic p65 ratio, rep 1 = 1.33; nuclear/cytoplasmic p65 ratio, rep 2 = 1.28; low cell count flag fewer than 50 cells per well; well left out of scoring; inactive.
Knock-down of Snx5 (GeneID 69178) resulted in: p65 translocation robust z-score 0.48; nuclear/cytoplasmic p65 ratio, rep 1 = 1.55; nuclear/cytoplasmic p65 ratio, rep 2 = 1.69; low cell count flag enough cells to score; inactive.
With knock-down of Aldh6a1 (GeneID 104776), the record shows p65 translocation robust z-score 0.17; nuclear/cytoplasmic p65 ratio, rep 1 = 1.79; nuclear/cytoplasmic p65 ratio, rep 2 = 1.51; low cell count flag enough cells to score; inactive.
Against Spns2 (GeneID 216892), the values are p65 translocation robust z-score -0.84; nuclear/cytoplasmic p65 ratio, rep 1 = 1.37; nuclear/cytoplasmic p65 ratio, rep 2 = 1.8; low cell count flag enough cells to score; inactive.
Knock-down of Rgs19 (GeneID 56470) came out at: p65 translocation robust z-score -1.47; nuclear/cytoplasmic p65 ratio, rep 1 = 1.3; nuclear/cytoplasmic p65 ratio, rep 2 = 1.38; low cell count flag enough cells to score; inactive.
With knock-down of Aadac (GeneID 67758) the results were p65 translocation robust z-score 1.64; nuclear/cytoplasmic p65 ratio, rep 1 = 1.66; nuclear/cytoplasmic p65 ratio, rep 2 = 1.68; low cell count flag enough cells to score; inactive.
Trpm2 (GeneID 28240) gave p65 translocation robust z-score -1.39; nuclear/cytoplasmic p65 ratio, rep 1 = 1.38; nuclear/cytoplasmic p65 ratio, rep 2 = 1.24; low cell count flag enough cells to score; inactive.
Otud7a (GeneID 170711) showed nuclear/cytoplasmic p65 ratio, rep 1 = 1.26; nuclear/cytoplasmic p65 ratio, rep 2 = 1.38; low cell count flag fewer than 50 cells per well; well left out of scoring; inactive.
Silencing of Tsga8 (GeneID 100502723) came out at: nuclear/cytoplasmic p65 ratio, rep 1 = 1.18; nuclear/cytoplasmic p65 ratio, rep 2 = 1.23; low cell count flag fewer than 50 cells per well; well left out of scoring; inactive.
For Tmem54 (GeneID 66260), the entry reads nuclear/cytoplasmic p65 ratio, rep 1 = 1.57; nuclear/cytoplasmic p65 ratio, rep 2 = 1.35; low cell count flag fewer than 50 cells per well; well left out of scoring; inactive.
Depletion of Ipo4 (GeneID 75751) came out at: p65 translocation robust z-score -0.7; nuclear/cytoplasmic p65 ratio, rep 1 = 1.53; nuclear/cytoplasmic p65 ratio, rep 2 = 1.27; low cell count flag enough cells to score; inactive.
Pde4b (GeneID 18578) showed p65 translocation robust z-score 0.83; nuclear/cytoplasmic p65 ratio, rep 1 = 1.57; nuclear/cytoplasmic p65 ratio, rep 2 = 1.52; low cell count flag enough cells to score; inactive.
After knock-down of Gpr3 (GeneID 14748), the record shows nuclear/cytoplasmic p65 ratio, rep 1 = 1.37; nuclear/cytoplasmic p65 ratio, rep 2 = 1.48; low cell count flag fewer than 50 cells per well; well left out of scoring; inactive.
Rhno1 (GeneID 72440) showed p65 translocation robust z-score -0.32; nuclear/cytoplasmic p65 ratio, rep 1 = 1.33; nuclear/cytoplasmic p65 ratio, rep 2 = 1.42; low cell count flag enough cells to score; inactive.
Sp8 (GeneID 320145) showed p65 translocation robust z-score 1.07; nuclear/cytoplasmic p65 ratio, rep 1 = 1.54; nuclear/cytoplasmic p65 ratio, rep 2 = 1.37; low cell count flag enough cells to score; inactive.
For Emp2 (GeneID 13731), the entry reads p65 translocation robust z-score 0.71; nuclear/cytoplasmic p65 ratio, rep 1 = 1.77; nuclear/cytoplasmic p65 ratio, rep 2 = 1.49; low cell count flag enough cells to score; inactive.
Knock-down of Glycam1 (GeneID 14663) came out at: nuclear/cytoplasmic p65 ratio, rep 1 = 1.58; nuclear/cytoplasmic p65 ratio, rep 2 = 1.34; low cell count flag fewer than 50 cells per well; well left out of scoring; inactive.

2 successive entries from above, quoted:
Tmem54 (GeneID 66260) → nuclear/cytoplasmic p65 ratio, rep 1: 1.57; nuclear/cytoplasmic p65 ratio, rep 2: 1.35; low cell count flag: fewer than 50 cells per well; well left out of scoring; Call: inactive
Ipo4 (GeneID 75751) → p65 translocation robust z-score: -0.7; nuclear/cytoplasmic p65 ratio, rep 1: 1.53; nuclear/cytoplasmic p65 ratio, rep 2: 1.27; low cell count flag: enough cells to score; Call: inactive
